Test results reported in patent publication US7071212B2, “N-(4-carbamimidoyl-phenyl)-glycine derivatives” (Hoffmann-La Roche Inc., priority 1998, dated 2006).

Sequences of proteins named here, by UniProt entry; tags and fusion partners are left off. Residues count along the entry.
UniProt P08709, 213-466 limits assumed: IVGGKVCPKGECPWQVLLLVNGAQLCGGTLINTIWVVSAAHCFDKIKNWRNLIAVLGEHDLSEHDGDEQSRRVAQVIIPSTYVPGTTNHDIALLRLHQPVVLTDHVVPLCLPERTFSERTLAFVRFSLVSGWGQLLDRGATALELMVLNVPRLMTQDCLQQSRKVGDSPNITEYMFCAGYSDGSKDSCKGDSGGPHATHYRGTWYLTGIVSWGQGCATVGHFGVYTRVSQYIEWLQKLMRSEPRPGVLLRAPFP
UniProt P08709, 61-212 partner limits assumed: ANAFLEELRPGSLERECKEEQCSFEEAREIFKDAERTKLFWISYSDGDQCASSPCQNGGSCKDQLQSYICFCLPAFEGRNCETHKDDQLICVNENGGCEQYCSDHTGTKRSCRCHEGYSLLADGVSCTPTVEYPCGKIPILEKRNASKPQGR
UniProt P13726, 33-295 partner limits assumed: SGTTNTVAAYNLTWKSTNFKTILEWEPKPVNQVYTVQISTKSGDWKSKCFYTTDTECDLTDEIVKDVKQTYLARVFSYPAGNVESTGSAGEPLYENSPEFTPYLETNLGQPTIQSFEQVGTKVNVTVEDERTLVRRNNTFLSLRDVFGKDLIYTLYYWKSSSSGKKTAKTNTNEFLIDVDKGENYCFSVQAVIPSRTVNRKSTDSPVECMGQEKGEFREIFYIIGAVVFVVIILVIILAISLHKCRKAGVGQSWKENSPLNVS

Target: factor VIIa/tissue factor complex (Homo sapiens, UniProt P08709)
Assay: inhibition of the amidolytic activity of factor VIIa/tissue factor complex (chromogenic peptide substrate)
Details: 26 nM tissue factor, 9 nM soluble factor VIIa, 8 mM calcium chloride, substrate Chromozym-tPA, pH 7.5, room temperature
Description: The measurements were carried out on microtitre plates at room temperature. To this end, 100 μl of a solution of 26 nM of tissue factor, 9 nM of soluble factor VIIa and 8 mM of calcium chloride were added to 25 μl of a solution of the inhibitor in a buffer [pH 7.5, 100 mM, comprising 0.14M NaCl, 0.1M N-(2-hydroxyethyl)piperazine-N′-(2-ethanesulphonic acid) (HEPES), 0.5 mg/l of fatty-acid-free BSA (bovine serum albumin) and 0.05% NaN3] in each well of the plate. After an incubation time of 15 minutes the reaction was started by the addition of 50 μl of chromogenic substrate Chromozym-tPA (3.5 mM, MeSO2-D-Phe-Gly-Arg-paranitroanilide) and the hydrolysis of the substrate was followed spectrophotometrically on a kinetic microtitre plate reader over 10 minutes. Using the plot of the inhibition curves, the Ki values were determined according to the method described in Biochem. J. 55, 1953, 170–171. The results will be evident from the following Table (Ki in μM/l): […]

Ki: 114 nM
Compound: COc1cc(OCCO)c(C(Nc2ccc(C(=N)N)cc2)C(=O)O)cc1OC (stereo not shown)

The structures given here were assigned with low confidence; some may be wrong.
